Measured values taken from patent US20260168983A1, “YaxAB NANOPORE, NANOPORE SYSTEM COMPRISING SAME AND APPLICATIONS THEREOF” (KOREA RESEARCH INSTITUTE OF BIOSCIENCE AND BIOTECHNOLOGY, priority 2022, published 2026).

The chains behind the UniProt entries cited, without tags or fusion partners. Residues count along the entry.
UniProt P02787, 20-698: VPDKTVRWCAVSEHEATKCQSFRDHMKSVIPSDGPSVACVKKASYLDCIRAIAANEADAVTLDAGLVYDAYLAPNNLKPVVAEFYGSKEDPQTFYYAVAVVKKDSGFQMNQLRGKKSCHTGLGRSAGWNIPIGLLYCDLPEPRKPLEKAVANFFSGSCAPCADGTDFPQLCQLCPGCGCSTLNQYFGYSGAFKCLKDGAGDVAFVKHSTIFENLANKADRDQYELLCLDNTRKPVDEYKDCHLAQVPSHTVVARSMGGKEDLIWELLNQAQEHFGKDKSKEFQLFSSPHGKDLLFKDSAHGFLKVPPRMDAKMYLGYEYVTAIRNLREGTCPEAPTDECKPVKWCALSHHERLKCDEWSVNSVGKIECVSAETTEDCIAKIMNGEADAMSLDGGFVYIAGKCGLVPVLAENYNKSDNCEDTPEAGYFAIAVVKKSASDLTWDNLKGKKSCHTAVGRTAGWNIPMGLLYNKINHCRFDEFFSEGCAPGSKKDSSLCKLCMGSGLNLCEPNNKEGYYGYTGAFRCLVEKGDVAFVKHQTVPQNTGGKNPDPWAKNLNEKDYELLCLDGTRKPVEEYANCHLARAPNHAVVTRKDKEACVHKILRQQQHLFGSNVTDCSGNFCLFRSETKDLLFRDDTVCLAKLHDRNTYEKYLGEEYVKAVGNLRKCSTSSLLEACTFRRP

Target: holo-transferrin protein (Homo sapiens, UniProt P02787)

Structure (SMILES): O=C1[O][Pt]2([NH][C@@H]3CCCC[C@H]3[NH]2)[O]C1=O [oxaliplatin]
- current blockade pattern of holo-transferrin with ligand versus protein alone: a distinct change in the current blockade pattern was observed
